Common to all, as to assay: split reporter
The target of experiment [1] is T1, Boi1CRU (Saccharomyces cerevisiae) (UniProt P38041).
T1 sequence: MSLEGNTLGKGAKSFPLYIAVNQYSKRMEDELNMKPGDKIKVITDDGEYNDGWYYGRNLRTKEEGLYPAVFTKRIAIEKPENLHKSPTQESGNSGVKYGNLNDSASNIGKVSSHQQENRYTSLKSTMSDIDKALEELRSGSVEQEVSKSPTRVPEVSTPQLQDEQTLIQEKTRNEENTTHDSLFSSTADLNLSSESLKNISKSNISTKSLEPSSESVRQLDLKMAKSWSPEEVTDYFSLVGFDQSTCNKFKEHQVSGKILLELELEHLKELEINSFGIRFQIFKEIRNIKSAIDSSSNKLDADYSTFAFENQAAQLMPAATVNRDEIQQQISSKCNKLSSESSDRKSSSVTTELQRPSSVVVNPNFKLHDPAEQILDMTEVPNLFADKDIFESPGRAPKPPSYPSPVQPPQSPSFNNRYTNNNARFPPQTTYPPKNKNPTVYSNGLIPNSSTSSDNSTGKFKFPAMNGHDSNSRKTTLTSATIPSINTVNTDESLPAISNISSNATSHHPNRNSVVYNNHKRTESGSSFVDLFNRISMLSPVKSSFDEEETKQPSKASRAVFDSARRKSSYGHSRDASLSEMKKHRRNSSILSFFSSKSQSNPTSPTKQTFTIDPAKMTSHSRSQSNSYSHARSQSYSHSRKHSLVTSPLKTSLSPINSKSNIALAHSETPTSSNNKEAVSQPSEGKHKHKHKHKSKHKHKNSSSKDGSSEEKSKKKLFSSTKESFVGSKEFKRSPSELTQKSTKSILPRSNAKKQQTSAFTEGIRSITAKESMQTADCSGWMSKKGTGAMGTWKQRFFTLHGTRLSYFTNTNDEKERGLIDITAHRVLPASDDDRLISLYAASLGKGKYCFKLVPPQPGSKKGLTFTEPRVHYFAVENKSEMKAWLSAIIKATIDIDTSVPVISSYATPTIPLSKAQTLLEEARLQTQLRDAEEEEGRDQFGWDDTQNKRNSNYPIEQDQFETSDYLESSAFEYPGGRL

By UniProt entry, the sequences of proteins in these tests, tags left out.
UniProt P41832: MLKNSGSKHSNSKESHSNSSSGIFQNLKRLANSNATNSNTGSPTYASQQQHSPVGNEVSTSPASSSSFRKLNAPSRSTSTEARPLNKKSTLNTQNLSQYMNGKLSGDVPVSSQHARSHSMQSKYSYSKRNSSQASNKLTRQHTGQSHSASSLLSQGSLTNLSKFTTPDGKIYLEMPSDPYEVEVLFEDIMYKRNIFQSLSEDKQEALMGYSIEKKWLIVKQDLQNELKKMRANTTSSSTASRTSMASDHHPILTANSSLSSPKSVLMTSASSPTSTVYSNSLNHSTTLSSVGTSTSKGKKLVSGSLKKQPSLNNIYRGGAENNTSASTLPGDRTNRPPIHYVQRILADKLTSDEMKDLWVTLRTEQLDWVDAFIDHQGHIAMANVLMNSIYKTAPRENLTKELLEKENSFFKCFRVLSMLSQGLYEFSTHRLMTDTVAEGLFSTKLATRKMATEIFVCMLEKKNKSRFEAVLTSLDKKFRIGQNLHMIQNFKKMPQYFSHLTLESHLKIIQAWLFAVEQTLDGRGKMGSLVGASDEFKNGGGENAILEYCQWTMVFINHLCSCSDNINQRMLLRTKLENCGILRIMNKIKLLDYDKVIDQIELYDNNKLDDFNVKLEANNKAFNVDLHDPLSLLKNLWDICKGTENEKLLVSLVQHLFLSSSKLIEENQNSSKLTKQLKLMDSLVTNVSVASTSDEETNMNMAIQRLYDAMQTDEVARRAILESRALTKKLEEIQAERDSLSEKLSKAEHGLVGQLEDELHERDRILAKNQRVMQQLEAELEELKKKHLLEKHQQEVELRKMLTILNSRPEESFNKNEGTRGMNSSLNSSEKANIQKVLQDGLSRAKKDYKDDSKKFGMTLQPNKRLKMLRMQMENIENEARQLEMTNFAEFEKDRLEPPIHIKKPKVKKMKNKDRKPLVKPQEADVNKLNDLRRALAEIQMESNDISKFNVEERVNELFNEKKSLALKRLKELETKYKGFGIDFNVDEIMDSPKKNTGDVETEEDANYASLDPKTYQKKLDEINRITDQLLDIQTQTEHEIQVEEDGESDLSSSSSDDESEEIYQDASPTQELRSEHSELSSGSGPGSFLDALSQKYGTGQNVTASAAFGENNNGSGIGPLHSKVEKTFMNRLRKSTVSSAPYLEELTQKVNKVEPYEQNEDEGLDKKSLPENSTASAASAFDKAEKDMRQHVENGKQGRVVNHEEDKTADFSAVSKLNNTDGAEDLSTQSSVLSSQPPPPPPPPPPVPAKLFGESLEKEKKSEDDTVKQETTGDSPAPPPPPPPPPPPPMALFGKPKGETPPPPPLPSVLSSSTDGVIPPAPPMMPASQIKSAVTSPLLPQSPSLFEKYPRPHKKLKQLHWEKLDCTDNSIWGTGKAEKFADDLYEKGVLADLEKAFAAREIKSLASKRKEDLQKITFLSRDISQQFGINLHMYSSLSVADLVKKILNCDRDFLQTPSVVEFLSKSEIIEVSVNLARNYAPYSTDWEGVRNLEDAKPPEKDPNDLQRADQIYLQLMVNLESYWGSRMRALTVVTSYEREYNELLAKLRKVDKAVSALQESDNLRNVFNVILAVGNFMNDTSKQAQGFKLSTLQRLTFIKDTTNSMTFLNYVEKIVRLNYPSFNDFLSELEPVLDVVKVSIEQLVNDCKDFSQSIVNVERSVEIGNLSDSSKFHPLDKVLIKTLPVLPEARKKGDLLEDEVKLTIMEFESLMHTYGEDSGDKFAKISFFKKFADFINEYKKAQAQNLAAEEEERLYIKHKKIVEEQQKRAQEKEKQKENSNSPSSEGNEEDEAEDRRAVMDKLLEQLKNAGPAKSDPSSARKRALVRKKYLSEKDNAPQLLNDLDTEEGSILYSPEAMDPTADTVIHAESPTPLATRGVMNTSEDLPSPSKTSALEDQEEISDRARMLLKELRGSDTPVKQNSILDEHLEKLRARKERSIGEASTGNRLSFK
UniProt P30619: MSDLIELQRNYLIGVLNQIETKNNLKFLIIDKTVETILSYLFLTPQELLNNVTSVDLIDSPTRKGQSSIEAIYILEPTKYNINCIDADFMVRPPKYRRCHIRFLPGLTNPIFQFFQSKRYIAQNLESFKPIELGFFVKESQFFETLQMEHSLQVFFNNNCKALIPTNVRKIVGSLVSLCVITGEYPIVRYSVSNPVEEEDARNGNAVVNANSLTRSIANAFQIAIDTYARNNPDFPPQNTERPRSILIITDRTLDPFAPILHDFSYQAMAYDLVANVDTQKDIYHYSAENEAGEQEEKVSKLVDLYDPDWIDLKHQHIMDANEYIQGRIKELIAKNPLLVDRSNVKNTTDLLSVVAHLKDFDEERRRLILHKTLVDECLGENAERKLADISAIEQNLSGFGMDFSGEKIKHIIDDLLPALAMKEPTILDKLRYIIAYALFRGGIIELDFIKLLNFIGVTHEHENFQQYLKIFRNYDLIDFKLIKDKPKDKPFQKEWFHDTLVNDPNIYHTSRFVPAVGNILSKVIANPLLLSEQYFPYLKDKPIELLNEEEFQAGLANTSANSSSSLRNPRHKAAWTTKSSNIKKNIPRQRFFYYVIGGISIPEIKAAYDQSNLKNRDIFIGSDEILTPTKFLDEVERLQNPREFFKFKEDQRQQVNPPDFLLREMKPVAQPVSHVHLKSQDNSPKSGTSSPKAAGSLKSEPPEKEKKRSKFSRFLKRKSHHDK

Experiment [2] concerns the target T2, Boi1_(Δ86-178)CRU (Saccharomyces cerevisiae) (UniProt P38041).
T2 sequence: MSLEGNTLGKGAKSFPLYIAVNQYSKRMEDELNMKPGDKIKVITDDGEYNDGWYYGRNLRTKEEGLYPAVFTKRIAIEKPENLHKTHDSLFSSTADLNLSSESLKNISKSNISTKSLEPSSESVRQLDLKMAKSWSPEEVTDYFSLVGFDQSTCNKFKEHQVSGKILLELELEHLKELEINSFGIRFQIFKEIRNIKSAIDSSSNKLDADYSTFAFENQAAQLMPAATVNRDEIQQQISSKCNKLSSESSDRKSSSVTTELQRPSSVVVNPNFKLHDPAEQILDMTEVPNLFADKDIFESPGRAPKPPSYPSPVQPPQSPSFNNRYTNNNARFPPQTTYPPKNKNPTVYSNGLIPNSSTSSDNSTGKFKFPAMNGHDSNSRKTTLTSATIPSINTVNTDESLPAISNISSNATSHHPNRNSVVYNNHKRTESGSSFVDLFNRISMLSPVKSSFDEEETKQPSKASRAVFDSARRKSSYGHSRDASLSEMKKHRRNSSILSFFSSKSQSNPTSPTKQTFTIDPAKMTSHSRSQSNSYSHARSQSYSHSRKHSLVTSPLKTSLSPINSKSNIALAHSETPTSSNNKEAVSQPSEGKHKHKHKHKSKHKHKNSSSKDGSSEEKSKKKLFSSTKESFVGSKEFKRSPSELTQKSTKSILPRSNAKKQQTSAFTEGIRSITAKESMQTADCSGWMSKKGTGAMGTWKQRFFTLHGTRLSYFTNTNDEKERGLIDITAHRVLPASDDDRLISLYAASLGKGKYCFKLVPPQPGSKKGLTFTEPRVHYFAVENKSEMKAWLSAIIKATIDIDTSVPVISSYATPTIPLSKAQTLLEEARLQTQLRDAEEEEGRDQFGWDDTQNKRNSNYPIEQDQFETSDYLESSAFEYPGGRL

Experiment [3] has as its target Bni1CRU (Saccharomyces cerevisiae) (UniProt P41832).
Experiment [4] addresses T3, Bud6CRU (Saccharomyces cerevisiae) (UniProt P41697).
T3 sequence: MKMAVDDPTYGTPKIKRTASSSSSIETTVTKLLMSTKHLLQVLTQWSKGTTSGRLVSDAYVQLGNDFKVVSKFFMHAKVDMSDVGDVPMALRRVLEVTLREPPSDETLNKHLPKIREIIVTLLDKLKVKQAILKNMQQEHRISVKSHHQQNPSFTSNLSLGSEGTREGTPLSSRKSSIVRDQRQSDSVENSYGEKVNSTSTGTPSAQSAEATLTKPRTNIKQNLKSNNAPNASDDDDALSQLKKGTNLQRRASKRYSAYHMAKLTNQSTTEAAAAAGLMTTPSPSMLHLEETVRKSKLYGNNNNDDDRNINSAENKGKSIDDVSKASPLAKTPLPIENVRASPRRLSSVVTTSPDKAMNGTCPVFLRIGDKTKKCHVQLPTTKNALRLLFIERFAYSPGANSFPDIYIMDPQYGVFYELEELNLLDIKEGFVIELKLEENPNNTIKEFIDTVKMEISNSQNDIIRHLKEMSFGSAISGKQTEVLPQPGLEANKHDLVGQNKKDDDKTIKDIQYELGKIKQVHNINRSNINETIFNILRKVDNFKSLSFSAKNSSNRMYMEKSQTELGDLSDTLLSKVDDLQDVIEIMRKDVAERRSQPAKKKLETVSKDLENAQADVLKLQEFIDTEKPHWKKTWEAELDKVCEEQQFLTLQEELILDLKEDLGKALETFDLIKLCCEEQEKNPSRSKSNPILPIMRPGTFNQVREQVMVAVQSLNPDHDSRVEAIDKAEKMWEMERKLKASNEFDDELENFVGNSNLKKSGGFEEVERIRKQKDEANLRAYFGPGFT

These are yes or no findings as the source states them, for the method shown. Binding seen in cells or lysates may run through a third protein. Some binding calls cover weakened binding; strength is not graded here. For some assays here: Where a sequence is shown, tags or fusion partners need not be part of it.

As for “Nub fusion of Sec1 (from UniProt P30619 1-724)”, the binding entry in experiment [1] and in experiment [2] was “binds” in each case.

B1: Nub-Boi2 (protein, UniProt P39969 1-1040)
chain: MSNDREVPTLSQLNTTVSRDKDVSDTLSPDFDSKGSATGRDGGNFPMYIAINEYFKRMEDELDMKPGDKIKVITDDEEYKDGWYFGRNLRTNEEGLYPVVFTQKITVEKAPTLMRAKSTKRIYSPLTNEDPLLSSTFISENDSNSELPTPQPIETAASISRTANGKIERNLSLKNTMSDIDNALLEFKDDSIGPPDRFINSGRDEEHSITHETILSATDGLDVVESNSKPTTSSSTGFLNGDLENQATLINGIDTTKLNPVEAEFWSPEEITAYFIMEGYDVQSASRFQKHKISGKILLELELVHLKELDINSFGTRFEIFKEIEKIKEAIRTNGRSLNRASKTNNANIYNQLMPPANVDQRASYRGHVRKTSQSLEDLPSQQNFIPTPRNTRNSSASKHRPKSLVFDSQEANANIAPDVQIPQVVEEMAGNENLFVSPRRAPKPPSYPSPAQPPKSPLLNNTRTSPSPAQLYSWQSPTLSFSGPKRTSYIDQYSSSDSNFNSRSALPKNNQGGGKALSPIPSPTRNSVRNEDSEGKLTSSSKRNSVPYYGYAPESSSDRKSSCSSHEEEQFQETMNTFERPTSSIYADGSTIASISNDKLAHEKEGKKKPTRHSSSLSSKSKSDSRRNSSLKRSSSASRTSSFKKSSFMLSPFRQQFTDNAARSSSPEENPITSMPSEKNSSPIVDKKSSKKSRSKRRSVSAKEAEIFTETVKDDKNKRSASEAIKGETLKGKSLRQMTARPVAKKKQTSAFIEGLRSISVKEAMKDADFSGWMSKKGSGAMSTWKTRFFTLHGTRLSYFSSTTDTRERGLIDITAHRVVPAKEDDKLVSLYAASTGKGRYCFKLLPPQPGSKKGLTFTQPRTHYFAVDNKEEMRGWMAALIKTTIDIDTSVPIISSYTTPTVSLSKAQEMLAEAREETKLREQQMLENEEDEDQFLWDQQQLQQQQHDNNQGQADRTISASTQRTSDEDNTISTPNLSSANNTTIGSNGFSSPFLLASGLLSPGVARNSSMRGTEKKGKFSTEEDYFGDNSKHKTDKI
On to B1, for which the binding result in experiment [3] and in experiment [4] was “binds” in each case.

B2: Nub fusion to the N-terminal 141 residues of Bud6 (domain or fragment, UniProt P41697 1-141)
chain: MKMAVDDPTYGTPKIKRTASSSSSIETTVTKLLMSTKHLLQVLTQWSKGTTSGRLVSDAYVQLGNDFKVVSKFFMHAKVDMSDVGDVPMALRRVLEVTLREPPSDETLNKHLPKIREIIVTLLDKLKVKQAILKNMQQEHR
For B2, in experiment [1], the binding result was “binds”.

B3: Nub fusion to the Boi1 linker region (residues 77-178) (domain or fragment, UniProt P38041 77-178)
chain: IEKPENLHKSPTQESGNSGVKYGNLNDSASNIGKVSSHQQENRYTSLKSTMSDIDKALEELRSGSVEQEVSKSPTRVPEVSTPQLQDEQTLIQEKTRNEENT
For B3, the binding entry in experiment [4] is “binds”.

B4: Nub fusion to the N-terminal 300 residues of Boi2 (domain or fragment, UniProt P39969 1-300)
chain: MSNDREVPTLSQLNTTVSRDKDVSDTLSPDFDSKGSATGRDGGNFPMYIAINEYFKRMEDELDMKPGDKIKVITDDEEYKDGWYFGRNLRTNEEGLYPVVFTQKITVEKAPTLMRAKSTKRIYSPLTNEDPLLSSTFISENDSNSELPTPQPIETAASISRTANGKIERNLSLKNTMSDIDNALLEFKDDSIGPPDRFINSGRDEEHSITHETILSATDGLDVVESNSKPTTSSSTGFLNGDLENQATLINGIDTTKLNPVEAEFWSPEEITAYFIMEGYDVQSASRFQKHKISGKILLE
In the case of B4, the binding result in experiment [3] and in experiment [4] was “binds” in each case.

B5: Nub fusion to the N-terminal 300 residues of Boi1 (domain or fragment, UniProt P38041 1-300)
chain: MSLEGNTLGKGAKSFPLYIAVNQYSKRMEDELNMKPGDKIKVITDDGEYNDGWYYGRNLRTKEEGLYPAVFTKRIAIEKPENLHKSPTQESGNSGVKYGNLNDSASNIGKVSSHQQENRYTSLKSTMSDIDKALEELRSGSVEQEVSKSPTRVPEVSTPQLQDEQTLIQEKTRNEENTTHDSLFSSTADLNLSSESLKNISKSNISTKSLEPSSESVRQLDLKMAKSWSPEEVTDYFSLVGFDQSTCNKFKEHQVSGKILLELELEHLKELEINSFGIRFQIFKEIRNIKSAIDSSSNKL
With B5, the binding entry in experiment [3] and in experiment [4] was “binds” throughout.

B6: Nub fusion of Boi1_(Δ86-178) (protein, UniProt P38041)
chain: T2 sequence
Consider B6, for which the binding result in experiment [3] is given as “binds”.

These data come from article doi:10.1101/715409 (bioRxiv, 2019).
